Measured values: article PMC12040169 (PLOS Biology, 2025)
This is one part of the list.

The compounds below were run on T1, CTL2-GFP (C. trachomatis L2/434/Bu, GFP-expressing). Conditions: bulk GFP, single well; 28.5 h, 10 µM; inhibitor.
T1 construct: L2/434/Bu, GFP-expressing
Design: species or system HeLa; Intracellular C. trachomatis growth in HeLa cells, bulk GFP fluorescence relative to DMSO

| Compound | % of control remaining [%] |
| --- | --- |
| COc1ccc(C(=O)N2CCC3(CCCN(C(=O)CCSC)C3)C2)cc1OC (stereo not drawn) [CBK131661] | 103.526 |
| Cc1noc(C)c1C[S+]([O-])c1ccc(Br)cc1 (stereo not drawn) [CBK034195] | 147.032 |
| CC(C)NC(=O)N[C@H]1CCN2C(=O)c3ccc(Cl)cc3NC(=O)[C@H]12 [CBK289343] | 122.598 |
| Cc1nccn1CC1(O)CCN(Cc2ccc(F)c(F)c2)CC1 [CBK284955] | 86.8806 |
| CC1CCCCN1CC(C)(C)NC(=O)c1cc(C2CC2)on1 (stereo not drawn) [CBK281676] | 130.678 |
| Cc1nnc(CNC(=O)c2cc(-c3ccc(Cl)cc3)nc3ccccc23)o1 [CBK297717] | 118.046 |
| CC(=O)Nc1nc(C(=O)N2CCOC(c3ccc(F)cc3)C2)cs1 (stereo not drawn) [CBK244238] | 96.9661 |
| COc1ccc(-c2c[nH]c([C@@H]3COCCN3Cc3csnn3)n2)cc1 [CBK289297] | 145.816 |
| Cc1cn(CC(=O)N2CCCC3(CCN(C(=O)c4cc(F)c(F)cc4F)C3)C2)c(=O)[nH]c1=O (stereo not drawn) [CBK131561] | 78.3681 |
| COc1cccc(C(=O)Nc2ccc(NC(=O)C3CC=CCC3C(=O)O)cc2)c1 (stereo not drawn) [CBK266316] | 111.765 |
| O=C(Nc1cc(N2CCCS2(=O)=O)ccc1Cl)c1cc[nH]n1 [CBK306249] | 189.49 |
| O=C(Cn1cccc2cc(C3CCNCC3)nc1-2)N1CCCCCC1 [CBK284679] | 122.426 |
| CCc1ccc(-n2cc(-c3ccccn3)nn2)cc1 [CBK113137] | 122.963 |
| O=C(CSCc1ccc(Cl)cc1Cl)Nc1cccc(O)c1 [CBK131702] | 76.4423 |
| O=S(=O)(Nc1cccc(Cl)c1Cl)c1cccc2nsnc12 [CBK067296] | 75.6241 |
| Cc1ccc(S(=O)(=O)c2ccc(C)c(S(=O)(=O)NC3CCCCC3)c2)cc1S(=O)(=O)NC1CCCCC1 [CBK261653] | 100 |
| COc1cc(OC)nc(Oc2ccccc2C(=O)O)n1 [CBK092218] | 120.984 |
| Cc1nn(C)c(C)c1CN1CCN(C(=S)Nc2ccc(S(N)(=O)=O)cc2)CC1 [CBK267030] | 163.352 |
| Cc1nn(CC(=O)NC(C)C)c(=O)c2cc3sccc3n12 [CBK284048] | 114.478 |
| CC1CN(C(=S)Nc2ccc(NC(=S)N3CC(C)OC(C)C3)cc2)CC(C)O1 (stereo not drawn) [CBK004991] | 150.846 |
| COc1ccc(C(NC(=O)[C@H]2CCCN2C(=O)NCc2ccccc2C)c2ccccc2C)cn1 (stereo partly drawn) [CBK075051] | 98.8277 |
| Cc1ccc(NC(=O)c2cnc3scc(C)n3c2=O)cc1C [CBK287461] | 111.705 |
| O=C(c1nccs1)C1CCN(C(=O)Cc2ccc(Cl)cc2)CC1 [CBK284160] | 98.872 |
| O=C(CCn1c(C(F)F)cc2cccnc21)N1CCCC(CO)C1 (stereo not drawn) [CBK284985] | 164.256 |
| CC(C)(CN)CN(Cc1ccncc1)C(=O)Nc1ccc(C(C)(C)C)cc1 [CBK002459C] | 100 |
| CCNC(=O)N(C)c1c(CC)nc2ccc(C(=O)N3CCN(C(C)=O)CC3)cn12 [CBK146362] | 103.229 |

| Compound | % of control remaining [%] |
| --- | --- |
| O=C(CN1CCOCC1)Nc1sc2c(c1C(=O)Nc1ccc(Br)cc1)CCC2 [CBK265073] | 100 |
| O=C(Nc1cccc(-c2nnn[nH]2)c1)c1ccc(Cl)c(Cl)c1 [CBK144713] | 117.722 |
| Cc1noc([C@@H]2C[C@H](NC(=O)Nc3cccc(C#N)c3)CN2C)n1 [CBK288873] | 108.88 |
| CC1(c2[nH]nc(N)c2Cc2c(Cl)cccc2Cl)CC1 [CBK115483T] | 97.0592 |
| CC1(C)[C@H](Cc2cc(CO)on2)C[C@@H]1NC(=O)C1CCCCC1 [CBK289235] | 119.434 |
| CC1CC(=O)Nc2ccccc2N1C(=O)Cn1c(=O)cnc2ccccc21 (stereo not drawn) [CBK297116] | 79.5709 |
| O=C(CN1CCN(Cc2ccccc2)CC1)Nc1ccc(C(F)(F)F)cc1Cl [CBK074781] | 108.385 |
| CCOCC1CCN(C(=O)c2ncsc2Nc2ccccc2)C1 (stereo not drawn) [CBK304204] | 116.821 |
| CCCC(=O)N1CCC(c2nc3ccccc3cc2NC(C)=O)CC1 [CBK285258] | 136.853 |
| COc1ccc(Nc2cc(-c3ccsc3)ncn2)cc1OC [CBK090820] | 188.476 |
| Cc1cc(S(=O)(=O)N2CCCC2)ccc1OCC(=O)O [CBK268289] | 138.878 |
| O=C(CCC(=O)c1ccc(F)cc1)Nc1cccnc1 [CBK266901] | 156.485 |
| O=C(NCCN1CCC(O)(c2ccc(F)cc2)CC1)C1CC1 [CBK283164] | 129.13 |
| COc1ccc(C(C)C)cc1-c1cc(Nc2cc(OC)c(OC)c(OC)c2)n2nccc2n1 [CBK037746] | 111.261 |
| CCC1C(=O)N=C(SCC(=O)Nc2ncccn2)NC1=O (stereo not drawn) [CBK263920] | 100 |
| O=C(NC(c1ccc(Cl)cc1)c1ccsc1)C1CCN(CCc2ccc(F)cc2)CC1 (stereo not drawn) [CBK147976] | 105.292 |
| CC(C)[C@H](CO)Nc1nc(-c2ccc3c(c2)OCO3)cn2ccnc12 [CBK038071] | 132.766 |
| CC[C@H]1CN(S(=O)(=O)c2c(C)noc2C)CC[C@H]1CC(=O)Nc1nccs1 [CBK288779] | 113.684 |
| COc1ccccc1-c1ccc(C(=O)N(C)CCN(C)C)c(NCC2CC2)n1 [CBK106269] | 103.084 |
| Cc1ccc(CN(Cc2cnc(C)n2C)CC2CCCO2)o1 (stereo not drawn) [CBK283291] | 145.874 |
| Cc1cc(C2CCCCCN2C(=O)c2ccc(F)cc2)on1 (stereo not drawn) [CBK285447] | 115.594 |
| O=C(O)c1ccccc1-c1ccccc1C(=O)Nc1ccc(O)cc1 [CBK286602] | 146.872 |
| COc1cc(NC(=O)NCCc2cccs2)cc(OC)c1OC [CBK043347] | 114.359 |
| Cc1noc(C)c1S(=O)(=O)Nc1ccc2[nH]ncc2c1 [CBK062518] | 118.824 |
| CC1CCCN(CC(=O)NCc2ccc(OCC(N)=O)cc2)CC1 (stereo not drawn) [CBK305755] | 133.175 |
| CC(C)OCC(O)Cn1c(N/N=C/c2ccccc2O)nc2c1c(=O)[nH]c(=O)n2C (stereo not drawn) [CBK139853] | 100.844 |

A run of entries from the list above:

| Compound | % of control remaining [%] |
| --- | --- |
| COc1cc(NC(=O)NCCc2cccs2)cc(OC)c1OC [CBK043347] | 114.359 |
| Cc1noc(C)c1S(=O)(=O)Nc1ccc2[nH]ncc2c1 [CBK062518] | 118.824 |

Continued.

| Compound | % of control remaining [%] |
| --- | --- |
| O=C1NC2(CCc3ccccc31)CCN(C(=O)c1ccccn1)C2 (stereo not drawn) [CBK283337] | 98.4888 |
| Cc1c(C#N)c2ccc(O)c(CN(C)C)c2n1-c1ccccc1 [CBK094247C] | 87.3151 |
| Cc1cc(NC(=O)CN(C)Cc2cnn(-c3ccccc3)c2)on1 [CBK305622] | 118.955 |
| COCCN(Cc1cnn(C)c1)Cc1cc(O)c2cc(F)ccc2n1 [CBK307359] | 129.1 |
| CCN1CCN(S(=O)(=O)c2cccc([N+](=O)[O-])c2)CC1 [CBK266675] | 143.718 |
| COc1cncc(-c2cncc(N3CCN(CCN(C)C)CC3)n2)c1 [CBK065393] | 75.6627 |
| CC1CCN(Cc2csc(NC(=O)CCn3c(-c4cccs4)n[nH]c3=S)n2)CC1 [CBK297892] | 97.726 |
| Cc1c(Cl)cccc1N1CCN(S(=O)(=O)CC23CCC(CC2=O)C3(C)C)CC1 (stereo not drawn) [CBK269257] | 159.101 |
| NS(=O)(=O)c1ccc(CCNC(=O)COc2ccc(Cl)cc2Cl)cc1 [CBK265694] | 108.804 |
| Cc1ccn2c(F)c(C(=O)N3CCCCC3CN3CCOCC3)nc2c1 (stereo not drawn) [CBK307028] | 156.297 |
| CS(=O)(=O)c1ccc(-c2ccc3c(c2)C(=O)NC(C2CCN(C(=O)OCc4ccccc4)CC2)O3)cc1 (stereo not drawn) [CBK156087] | 128.511 |
| CCCn1ncc(C(=O)N2CCN(CC3CCCN(C)C3)CC2)c1C (stereo not drawn) [CBK307122] | 114.353 |
| COC(=O)c1ccc(CN2CCN(CCN3C(=O)c4cccc5cccc(c45)C3=O)CC2)cc1 [CBK074518] | 126.742 |
| O=C(O)C(Cc1c[nH]c2ccccc12)N1C(=O)C2C3c4ccccc4C(c4ccccc43)C2C1=O (stereo not drawn) [CBK265377] | 100 |
| CN(C)C(=O)CC(O)c1cc2n(n1)CCN(Cc1cccs1)C2 (stereo not drawn) [CBK306620] | 95.8879 |
| OC(c1ccncc1)C(O)c1ccncc1 (stereo not drawn) [CBK024254] | 103.465 |
| Nc1ccc(-c2nc(NC(=O)c3cccs3)cnc2-c2ccc(F)cc2)cc1 [CBK037597] | 202.275 |
| Cc1ccccc1Nc1nc(N)nc(CN(CCC#N)CC2CCC2)n1 [CBK305308] | 130.076 |
| COc1ccc2sc(N(Cc3cccnc3)C(=O)C3COc4ccccc4O3)nc2c1 (stereo not drawn) [CBK294424] | 162.215 |
| Cn1cccc1CNCCN1CCOCC1 [CBK278187C] | 125.089 |
| COc1ccc(-c2cncc(N3CCN(c4cccc5[nH]ccc45)CC3)n2)cc1 [CBK066087] | 125.874 |
| CC(=O)Nc1cccc(CN(CCCO)c2ccccc2)c1 [CBK304833] | 140.554 |
| COc1ccc(S(=O)(=O)N2CCN(Cc3ccc4c(c3)OCO4)CC2)c2ccccc12 [CBK074521] | 96.4808 |
| Oc1cccc(Sc2nc3ccccc3nc2C(F)(F)F)c1 [CBK093780] | 88.0488 |
| O=C(O)CC(Cc1ccc(Cl)cc1)C(=O)Nc1ccc([N+](=O)[O-])cc1 (stereo not drawn) [CBK261973] | 117.76 |
| CN(CCc1ccncc1)C(=O)CCc1cc(F)ccc1F [CBK304876] | 135.013 |

Part of the list above in a different format.
Compound	% of control remaining [%]
COc1ccc2sc(N(Cc3cccnc3)C(=O)C3COc4ccccc4O3)nc2c1 (stereo not drawn) [CBK294424]	162.215
Cn1cccc1CNCCN1CCOCC1 [CBK278187C]	125.089
COc1ccc(-c2cncc(N3CCN(c4cccc5[nH]ccc45)CC3)n2)cc1 [CBK066087]	125.874
CC(=O)Nc1cccc(CN(CCCO)c2ccccc2)c1 [CBK304833]	140.554
